# Results of single-concentration screens

Amino acid sequences for entries named in this document (tags omitted). Residues count along the entry.
UniProt Q8IDJ8, 1-583: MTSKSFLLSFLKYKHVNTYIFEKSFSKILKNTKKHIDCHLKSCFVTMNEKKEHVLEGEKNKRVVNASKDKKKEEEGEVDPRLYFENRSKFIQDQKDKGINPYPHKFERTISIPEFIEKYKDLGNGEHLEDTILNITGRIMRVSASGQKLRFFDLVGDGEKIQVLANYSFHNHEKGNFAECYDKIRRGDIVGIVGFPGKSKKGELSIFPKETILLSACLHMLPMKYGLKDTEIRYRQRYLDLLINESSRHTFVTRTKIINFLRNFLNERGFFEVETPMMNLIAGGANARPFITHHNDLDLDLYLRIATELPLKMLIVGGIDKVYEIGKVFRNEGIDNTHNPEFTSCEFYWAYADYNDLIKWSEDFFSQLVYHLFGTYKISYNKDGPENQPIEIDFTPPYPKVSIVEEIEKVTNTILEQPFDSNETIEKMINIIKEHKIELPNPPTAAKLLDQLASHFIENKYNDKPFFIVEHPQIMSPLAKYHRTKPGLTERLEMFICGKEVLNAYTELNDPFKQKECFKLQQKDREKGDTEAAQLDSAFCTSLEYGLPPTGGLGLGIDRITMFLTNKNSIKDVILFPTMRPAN
UniProt A4I591, 1-473: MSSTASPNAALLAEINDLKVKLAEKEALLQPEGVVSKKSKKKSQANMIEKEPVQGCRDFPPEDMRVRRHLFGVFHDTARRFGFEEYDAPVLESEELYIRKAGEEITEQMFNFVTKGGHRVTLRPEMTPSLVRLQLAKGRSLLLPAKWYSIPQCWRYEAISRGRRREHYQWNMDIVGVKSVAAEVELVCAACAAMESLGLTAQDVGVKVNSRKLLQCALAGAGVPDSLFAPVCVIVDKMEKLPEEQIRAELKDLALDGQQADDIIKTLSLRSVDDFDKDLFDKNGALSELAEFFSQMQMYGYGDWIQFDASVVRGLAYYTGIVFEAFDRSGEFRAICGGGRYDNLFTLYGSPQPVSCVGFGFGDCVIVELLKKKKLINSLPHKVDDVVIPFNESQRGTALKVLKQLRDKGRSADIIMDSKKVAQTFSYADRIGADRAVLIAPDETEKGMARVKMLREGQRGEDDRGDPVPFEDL
UniProt Q4DA54, 1-478: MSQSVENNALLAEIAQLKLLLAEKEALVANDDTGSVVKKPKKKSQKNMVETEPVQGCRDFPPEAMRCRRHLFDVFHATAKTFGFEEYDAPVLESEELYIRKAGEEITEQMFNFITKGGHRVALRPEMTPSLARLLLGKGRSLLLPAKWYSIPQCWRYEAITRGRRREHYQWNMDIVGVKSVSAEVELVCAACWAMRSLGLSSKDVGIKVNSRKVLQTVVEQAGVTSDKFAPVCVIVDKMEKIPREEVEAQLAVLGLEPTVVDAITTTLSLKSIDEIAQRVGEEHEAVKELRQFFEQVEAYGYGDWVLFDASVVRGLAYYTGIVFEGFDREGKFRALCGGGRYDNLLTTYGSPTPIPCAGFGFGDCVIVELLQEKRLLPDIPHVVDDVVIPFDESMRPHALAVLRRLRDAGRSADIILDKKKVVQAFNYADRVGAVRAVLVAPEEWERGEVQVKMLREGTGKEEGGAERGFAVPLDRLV
UniProt P9WPC5, whole entry: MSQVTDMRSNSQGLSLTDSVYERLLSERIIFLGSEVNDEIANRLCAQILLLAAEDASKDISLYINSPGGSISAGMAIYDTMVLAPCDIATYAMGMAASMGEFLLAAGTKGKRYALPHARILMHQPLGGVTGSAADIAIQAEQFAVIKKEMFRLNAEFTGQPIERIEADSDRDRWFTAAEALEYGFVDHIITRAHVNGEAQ
UniProt P9WPC3, whole entry partner: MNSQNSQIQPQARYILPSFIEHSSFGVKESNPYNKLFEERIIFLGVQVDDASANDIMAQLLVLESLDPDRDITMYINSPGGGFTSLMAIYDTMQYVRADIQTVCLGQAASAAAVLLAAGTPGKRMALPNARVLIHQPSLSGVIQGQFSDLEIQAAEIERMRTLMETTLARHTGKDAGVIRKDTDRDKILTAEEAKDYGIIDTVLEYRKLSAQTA

PfKRS1: 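Lysine-tRNA ligase, Plasmodium falciparum 3D7 (UniProt Q8IDJ8). Enzyme assay of the cytosolic lysyl-tRNA synthetase in 384-well plates, read by luminescence. Concentration: 30 µM. Direction is inferred from only a few compounds that gave an IC50; most scored high, so higher reads as stronger inhibition. Size under these conditions: about 69,000 compounds, about 49 of them at 50% or above in at least one test.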
LiHisRS: 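Histidine-tRNA ligase, Leishmania infantum (UniProt A4I591). Enzyme assay of histidyl-tRNA synthetase; the read-out is not stated. Tested at 30 µM. Direction is inferred from retests: higher values go with stronger inhibition. The assay is labelled LdHisRS but filed under L. infantum. Size under these conditions: about 69,000 compounds, about 410 of them at 50% or above in at least one test.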
TcHisRS: 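Enzyme assay of histidyl-tRNA synthetase; the read-out is not stated. Target: Histidine-tRNA ligase, Trypanosoma cruzi CL Brener (UniProt Q4DA54). Tested at 30 µM. Higher reads as stronger inhibition (inferred: compounds with an IC50 in retests scored well above the rest). Size under these conditions: about 69,000 compounds, about 31 of them at 50% or above in at least one test.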
Leishmania in macrophages: 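Cell assay of Leishmania donovani living inside macrophages; the read-out is not stated. Tested at 30 µM. Higher reads as stronger inhibition (inferred: compounds with an IC50 in retests scored well above the rest). Of about 69,000 compounds tested this way, about 1,000 (1.5%) reached 50% or more in at least one test.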
ClpP1P2: 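ClpP1P2, Mycobacterium tuberculosis (UniProt P9WPC5 and UniProt P9WPC3). Protease assay of ClpP1P2, read by the AMC dye that it sets free. Tested at 50 µM. Direction is inferred from only a few compounds that gave an IC50; most scored high, so higher reads as stronger inhibition. Most other retested compounds had strongly negative values. About 69,000 compounds were tested under these conditions; 0.015% (about 10) showed 50% or more at least once.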

Results are given as percent effect. The record does not define 0% and 100%; most values in the screen are far below 50% and negative numbers occur (in some assays of this library far below -100). This is an unselected part of the compounds tested. Two or more numbers in one place are separate tests of the same structure; such repeats can differ widely.

Compound: CC(=O)N1CCN(C(=O)NC(C)C)CC2(CNC(=O)C2)C1 (stereo not drawn)
PfKRS1: 1.417
LiHisRS: 15.38
TcHisRS: 0
Leishmania in macrophages: -15.66
ClpP1P2: 6.723

Compound: Cc1cc(C)n(-c2nc(C(=O)NCCN3CCC(C)CC3)cs2)n1
PfKRS1: 0.4836
LiHisRS: 12.86
TcHisRS: 9.579
Leishmania in macrophages: -26.7
ClpP1P2: -1.334

Compound: CN1C(=O)C2(CCN(C(=O)c3ccccc3)CC2)c2cccc(F)c21
PfKRS1: 3.136
LiHisRS: 14.04
TcHisRS: 3.226
ClpP1P2: -4.376

Compound: CC1CCc2nn(CCNC(=O)Cc3ccccc3F)c(=O)cc2C1 (stereo not drawn)
PfKRS1: -0.8011
LiHisRS: 9.929
TcHisRS: 4.651
Leishmania in macrophages: 4.743
ClpP1P2: 3.525

Compound: O=C(O)C(F)(F)F.[H][C@]12CCC(=O)N(c3ccccc3)[C@@]1([H])CCN2c1ncc(C)cn1
Leishmania in macrophages: 39.44

Compound: CCn1cc(Br)c(C(=O)NCc2ccc(F)cc2)n1
PfKRS1: 9.343
LiHisRS: 17.7
TcHisRS: 0.8772
Leishmania in macrophages: -83.23
ClpP1P2: -4.797

Compound: Cc1nn(C)c(Cl)c1C1CCCN1C(=O)c1csnn1 (stereo not drawn)
PfKRS1: -0.7576
LiHisRS: 0
TcHisRS: 1.433
Leishmania in macrophages: -36.88
ClpP1P2: -4.225

Compound: O=C1O[C@@H]2CN(Cc3ccccc3)C[C@@H]2N1CCCN1CCOCC1
PfKRS1: -0.4227
LiHisRS: 22.33
TcHisRS: 7.054
ClpP1P2: -8.341

Compound: CCN1CCN(c2nsc(-c3cccnc3)c2C#N)CC1
PfKRS1: 4.68
LiHisRS: 16.81
TcHisRS: 1.327
Leishmania in macrophages: 14.23
ClpP1P2: -3.369

Compound: CCc1cn[nH]c1C1CCCN(C(=O)c2cc(C#N)c(=O)[nH]c2C)C1 (stereo not drawn)
PfKRS1: -0.3278
LiHisRS: 12.04
TcHisRS: 2.674
Leishmania in macrophages: 23.24
ClpP1P2: 8.341

Compound: O=C(c1ccccc1F)N1CC(c2nc(-c3ccc[nH]c3=O)no2)C1
PfKRS1: 3.678
LiHisRS: 13.91
TcHisRS: -5.155
Leishmania in macrophages: 22.87 and 21.77
ClpP1P2: -2.85

Compound: COc1cccc(-c2n[nH]c3c2CN(C(=O)c2ccncc2)CC3)c1
PfKRS1: 0.6311
LiHisRS: 0
TcHisRS: 2.128
Leishmania in macrophages: -13.76
ClpP1P2: -2.747

Compound: CC(C)(C)c1cc(C(=O)NCCn2nc3ccccn3c2=O)[nH]n1
PfKRS1: 3.964
LiHisRS: 9.434
TcHisRS: -3.333
Leishmania in macrophages: 2.364
ClpP1P2: -13.83

Compound: N#Cc1cc(Cn2cnc(C3CCC3)cc2=O)ccc1F
PfKRS1: -1.797
LiHisRS: 2.439
TcHisRS: 4.327
Leishmania in macrophages: -12.92
ClpP1P2: -15.57

Compound: O=C(O)C(F)(F)F.[H][C@]12CC[C@@]3(N=C(C)N(CC4CC4)C3=O)[C@@]1([H])CN(CC1CC1)C2
Leishmania in macrophages: 4.857

Compound: Cc1cnc(N2CCC3(CCCCN3C)C2)nc1 (stereo not drawn)
PfKRS1: 2.593
LiHisRS: -673.8
TcHisRS: 0
ClpP1P2: -18.39

Compound: CN(C)CCOCc1nnc2n1CCN(Cc1ccco1)CC2
PfKRS1: -1.132
LiHisRS: 5.556
TcHisRS: 5.714
ClpP1P2: -10.67

Compound: Cc1cc(C)cc(-n2ncc3c2CCCC3N)c1 (stereo not drawn)
PfKRS1: 12.72
LiHisRS: 10
TcHisRS: 0
Leishmania in macrophages: 79.9
ClpP1P2: 3.399

Compound: CN1C[C@]2(CC[C@@H](C(=O)N3CCOCC3)CC2)Oc2ccccc2C1=O
PfKRS1: 3.764
LiHisRS: -6.993
TcHisRS: 4.52
Leishmania in macrophages: -18.68
ClpP1P2: -8.8

Compound: O=S1(=O)CCC(N(CCc2ccc3c(c2)CCO3)C2CC2)C1 (stereo not drawn)
PfKRS1: 2.305
LiHisRS: 16.44
TcHisRS: -4.762
Leishmania in macrophages: -70.46
ClpP1P2: 2.068

Compound: CC(Oc1ccccc1C(F)(F)F)C(=O)NCC(N)=O (stereo not drawn)
PfKRS1: 5.648
LiHisRS: 21.15
TcHisRS: 5.882
Leishmania in macrophages: 16.39
ClpP1P2: -5.739

Compound: CN1C(=O)CC(C(=O)O)C12CCN(c1ccc3ccccc3n1)CC2 (stereo not drawn)
PfKRS1: 2.703
LiHisRS: 6.557
TcHisRS: 4
Leishmania in macrophages: -17.06
ClpP1P2: -20.38

Compound: CN(C)c1ncccc1CNS(=O)(=O)c1c(F)cccc1F
PfKRS1: 0.01383
LiHisRS: 0
TcHisRS: 1.143
Leishmania in macrophages: 11.99
ClpP1P2: -9.37

Compound: Cc1nc(-c2ccccc2)nc2c1CCN(Cc1nccn1C)CC2
PfKRS1: 2.618
LiHisRS: 13.86
TcHisRS: 6.533
Leishmania in macrophages: 18.3
ClpP1P2: -9.369

Compound: [H][C@@]12CN(CCN(C)C)C[C@]1([H])OCCN2Cc1cnn(C)c1
Leishmania in macrophages: 17.47

Compound: N[C@@H]1CC[C@@H](NC(=O)c2ccccc2OC(F)(F)C(F)F)C1
PfKRS1: 2.527
LiHisRS: 22.37
TcHisRS: -1.478
Leishmania in macrophages: -30
ClpP1P2: -10.62

The last 2 entries again:

Result for [H][C@@]12CN(CCN(C)C)C[C@]1([H])OCCN2Cc1cnn(C)c1 was Leishmania in macrophages: 17.47%.
Result for N[C@@H]1CC[C@@H](NC(=O)c2ccccc2OC(F)(F)C(F)F)C1 was PfKRS1: 2.527%; LiHisRS: 22.37%; TcHisRS: -1.478%; Leishmania in macrophages: -30%; ClpP1P2: -10.62%.

The values are deposited in ChEMBL (CHEMBL3988442, “University of Dundee, Small-Polar-MMV Screening Library” (2021)).